Test results taken from paper PMC10167234.
No constants are given. Whether binding was seen depends on the method and setting. In cells and extracts the contact can be indirect. Some entries that bind do so weakly or less than the wild type.

Chains of the proteins cited; added tags and fusions are not shown. Lines headed by an entry give the natural chain unless they say otherwise; changes in a name come on top.
UniProt P97496: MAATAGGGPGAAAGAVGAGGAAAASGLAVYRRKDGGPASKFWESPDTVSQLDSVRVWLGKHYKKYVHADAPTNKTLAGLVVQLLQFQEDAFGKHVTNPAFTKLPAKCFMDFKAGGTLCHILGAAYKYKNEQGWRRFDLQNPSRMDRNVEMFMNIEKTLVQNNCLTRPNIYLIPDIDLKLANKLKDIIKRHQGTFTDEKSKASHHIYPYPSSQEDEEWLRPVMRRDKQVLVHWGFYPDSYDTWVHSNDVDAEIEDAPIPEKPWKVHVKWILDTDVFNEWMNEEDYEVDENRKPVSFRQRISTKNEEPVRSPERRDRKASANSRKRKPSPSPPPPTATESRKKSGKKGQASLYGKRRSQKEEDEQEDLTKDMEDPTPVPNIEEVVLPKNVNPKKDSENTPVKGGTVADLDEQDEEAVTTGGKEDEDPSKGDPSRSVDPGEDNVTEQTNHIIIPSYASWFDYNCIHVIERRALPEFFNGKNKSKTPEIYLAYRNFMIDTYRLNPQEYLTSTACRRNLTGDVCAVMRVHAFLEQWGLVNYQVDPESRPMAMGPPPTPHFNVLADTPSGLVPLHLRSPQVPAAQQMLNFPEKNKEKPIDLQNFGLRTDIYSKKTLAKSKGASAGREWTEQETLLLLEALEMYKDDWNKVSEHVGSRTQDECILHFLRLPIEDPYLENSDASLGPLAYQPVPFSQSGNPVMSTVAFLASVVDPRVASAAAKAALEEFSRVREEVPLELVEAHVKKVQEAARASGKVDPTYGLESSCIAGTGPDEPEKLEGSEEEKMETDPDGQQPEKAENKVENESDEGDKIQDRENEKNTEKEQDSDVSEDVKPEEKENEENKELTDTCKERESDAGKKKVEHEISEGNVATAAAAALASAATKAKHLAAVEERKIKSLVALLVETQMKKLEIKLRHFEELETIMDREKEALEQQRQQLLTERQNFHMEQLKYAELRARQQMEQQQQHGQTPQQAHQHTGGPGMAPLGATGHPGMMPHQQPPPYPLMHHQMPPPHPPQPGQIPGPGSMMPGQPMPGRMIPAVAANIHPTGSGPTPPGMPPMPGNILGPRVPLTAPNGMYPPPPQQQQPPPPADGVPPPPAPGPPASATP
UniProt Q9DBH0: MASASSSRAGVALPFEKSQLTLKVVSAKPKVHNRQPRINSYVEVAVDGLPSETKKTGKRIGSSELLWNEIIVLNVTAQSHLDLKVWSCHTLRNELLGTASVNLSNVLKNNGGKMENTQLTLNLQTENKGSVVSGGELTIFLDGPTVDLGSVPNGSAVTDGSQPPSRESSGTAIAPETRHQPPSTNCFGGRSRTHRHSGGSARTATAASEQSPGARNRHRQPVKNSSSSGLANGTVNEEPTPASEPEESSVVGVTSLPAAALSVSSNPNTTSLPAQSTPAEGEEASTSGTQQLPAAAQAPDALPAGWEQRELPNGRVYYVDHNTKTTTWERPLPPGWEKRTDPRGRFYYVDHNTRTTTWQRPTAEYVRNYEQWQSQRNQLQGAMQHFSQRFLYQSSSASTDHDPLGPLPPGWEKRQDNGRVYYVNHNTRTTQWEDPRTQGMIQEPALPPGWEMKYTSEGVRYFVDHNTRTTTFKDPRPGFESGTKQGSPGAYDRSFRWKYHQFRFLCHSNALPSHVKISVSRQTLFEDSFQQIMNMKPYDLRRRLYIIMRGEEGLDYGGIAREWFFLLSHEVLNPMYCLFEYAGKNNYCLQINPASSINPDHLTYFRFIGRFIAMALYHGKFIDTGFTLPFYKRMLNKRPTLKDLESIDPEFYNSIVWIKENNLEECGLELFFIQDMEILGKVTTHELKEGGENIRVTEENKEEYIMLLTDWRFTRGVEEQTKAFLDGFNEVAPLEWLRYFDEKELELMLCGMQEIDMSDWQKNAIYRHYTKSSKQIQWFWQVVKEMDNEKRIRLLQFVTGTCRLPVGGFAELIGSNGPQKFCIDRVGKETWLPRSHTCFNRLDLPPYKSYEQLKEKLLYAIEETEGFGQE
UniProt Q92922: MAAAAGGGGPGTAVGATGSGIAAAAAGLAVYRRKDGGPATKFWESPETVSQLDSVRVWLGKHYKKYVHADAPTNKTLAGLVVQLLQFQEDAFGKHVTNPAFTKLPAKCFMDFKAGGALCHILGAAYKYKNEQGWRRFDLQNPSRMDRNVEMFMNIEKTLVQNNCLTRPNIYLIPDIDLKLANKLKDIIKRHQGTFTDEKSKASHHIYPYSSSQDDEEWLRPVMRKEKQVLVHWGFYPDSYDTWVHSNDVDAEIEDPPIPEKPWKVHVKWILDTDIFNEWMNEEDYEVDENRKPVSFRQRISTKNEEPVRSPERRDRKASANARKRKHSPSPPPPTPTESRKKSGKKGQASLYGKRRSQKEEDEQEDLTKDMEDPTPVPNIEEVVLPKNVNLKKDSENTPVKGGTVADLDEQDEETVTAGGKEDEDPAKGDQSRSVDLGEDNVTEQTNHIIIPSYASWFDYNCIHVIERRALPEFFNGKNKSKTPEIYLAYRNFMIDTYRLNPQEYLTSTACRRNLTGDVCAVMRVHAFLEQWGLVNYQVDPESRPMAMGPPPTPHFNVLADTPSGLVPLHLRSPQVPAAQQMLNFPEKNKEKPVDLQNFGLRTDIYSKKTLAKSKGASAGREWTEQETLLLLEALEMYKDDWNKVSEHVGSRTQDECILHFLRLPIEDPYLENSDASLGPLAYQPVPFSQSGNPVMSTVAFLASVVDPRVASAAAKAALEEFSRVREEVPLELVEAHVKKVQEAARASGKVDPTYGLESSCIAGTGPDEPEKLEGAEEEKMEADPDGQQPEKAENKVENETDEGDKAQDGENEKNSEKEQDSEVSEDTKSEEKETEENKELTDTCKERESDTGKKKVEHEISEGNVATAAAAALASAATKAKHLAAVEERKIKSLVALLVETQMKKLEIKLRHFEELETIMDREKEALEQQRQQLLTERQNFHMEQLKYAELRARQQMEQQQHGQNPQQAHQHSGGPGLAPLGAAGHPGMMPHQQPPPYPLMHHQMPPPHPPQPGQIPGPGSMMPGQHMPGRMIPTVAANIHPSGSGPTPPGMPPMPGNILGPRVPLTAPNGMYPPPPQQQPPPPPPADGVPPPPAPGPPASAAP
UniProt O00308: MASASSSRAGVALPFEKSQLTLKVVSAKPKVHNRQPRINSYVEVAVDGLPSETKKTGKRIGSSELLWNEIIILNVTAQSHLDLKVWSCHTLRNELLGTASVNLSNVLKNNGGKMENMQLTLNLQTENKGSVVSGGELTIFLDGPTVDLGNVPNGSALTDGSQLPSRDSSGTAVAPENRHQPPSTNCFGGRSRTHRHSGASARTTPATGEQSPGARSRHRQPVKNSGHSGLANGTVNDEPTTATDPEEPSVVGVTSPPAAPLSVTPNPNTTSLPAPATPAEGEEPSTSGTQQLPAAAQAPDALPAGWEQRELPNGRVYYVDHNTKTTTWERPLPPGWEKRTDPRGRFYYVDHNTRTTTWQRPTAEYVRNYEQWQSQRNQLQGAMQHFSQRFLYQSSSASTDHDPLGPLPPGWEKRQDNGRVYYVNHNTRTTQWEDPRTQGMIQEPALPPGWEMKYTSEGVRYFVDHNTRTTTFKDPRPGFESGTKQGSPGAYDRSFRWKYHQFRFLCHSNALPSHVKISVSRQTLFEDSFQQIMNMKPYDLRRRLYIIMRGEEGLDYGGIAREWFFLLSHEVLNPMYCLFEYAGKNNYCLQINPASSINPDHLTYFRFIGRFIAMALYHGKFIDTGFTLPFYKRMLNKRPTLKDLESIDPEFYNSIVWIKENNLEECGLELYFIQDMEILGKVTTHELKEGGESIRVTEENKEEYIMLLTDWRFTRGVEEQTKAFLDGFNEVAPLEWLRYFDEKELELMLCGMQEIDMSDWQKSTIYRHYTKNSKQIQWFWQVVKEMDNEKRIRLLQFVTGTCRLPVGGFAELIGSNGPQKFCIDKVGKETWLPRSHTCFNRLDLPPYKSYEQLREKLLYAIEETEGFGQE
UniProt P11103: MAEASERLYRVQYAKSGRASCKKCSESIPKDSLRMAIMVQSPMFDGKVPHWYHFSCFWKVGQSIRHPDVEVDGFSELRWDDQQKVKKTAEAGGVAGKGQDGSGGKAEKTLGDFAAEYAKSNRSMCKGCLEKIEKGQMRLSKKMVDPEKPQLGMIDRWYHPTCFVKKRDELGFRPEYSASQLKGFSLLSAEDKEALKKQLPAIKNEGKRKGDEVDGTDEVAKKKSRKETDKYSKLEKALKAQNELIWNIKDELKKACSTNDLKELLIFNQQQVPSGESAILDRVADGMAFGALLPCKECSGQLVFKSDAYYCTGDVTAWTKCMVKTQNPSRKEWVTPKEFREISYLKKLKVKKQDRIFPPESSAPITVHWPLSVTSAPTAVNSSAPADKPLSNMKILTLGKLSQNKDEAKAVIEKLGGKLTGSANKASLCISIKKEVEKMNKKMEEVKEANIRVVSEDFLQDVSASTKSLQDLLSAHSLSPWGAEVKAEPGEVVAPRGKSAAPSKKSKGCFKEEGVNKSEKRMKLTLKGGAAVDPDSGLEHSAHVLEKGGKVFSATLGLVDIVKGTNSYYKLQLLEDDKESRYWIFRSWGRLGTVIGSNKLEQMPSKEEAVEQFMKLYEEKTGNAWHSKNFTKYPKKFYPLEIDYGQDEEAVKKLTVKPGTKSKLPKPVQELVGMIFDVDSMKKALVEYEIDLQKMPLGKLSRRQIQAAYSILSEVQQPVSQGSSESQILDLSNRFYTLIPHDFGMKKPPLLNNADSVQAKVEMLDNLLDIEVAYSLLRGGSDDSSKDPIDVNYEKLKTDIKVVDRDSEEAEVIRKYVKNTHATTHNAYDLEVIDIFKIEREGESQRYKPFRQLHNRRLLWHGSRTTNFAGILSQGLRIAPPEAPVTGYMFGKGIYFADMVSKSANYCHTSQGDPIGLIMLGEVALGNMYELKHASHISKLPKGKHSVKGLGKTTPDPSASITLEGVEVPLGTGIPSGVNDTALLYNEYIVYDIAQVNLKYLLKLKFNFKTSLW
UniProt P09874: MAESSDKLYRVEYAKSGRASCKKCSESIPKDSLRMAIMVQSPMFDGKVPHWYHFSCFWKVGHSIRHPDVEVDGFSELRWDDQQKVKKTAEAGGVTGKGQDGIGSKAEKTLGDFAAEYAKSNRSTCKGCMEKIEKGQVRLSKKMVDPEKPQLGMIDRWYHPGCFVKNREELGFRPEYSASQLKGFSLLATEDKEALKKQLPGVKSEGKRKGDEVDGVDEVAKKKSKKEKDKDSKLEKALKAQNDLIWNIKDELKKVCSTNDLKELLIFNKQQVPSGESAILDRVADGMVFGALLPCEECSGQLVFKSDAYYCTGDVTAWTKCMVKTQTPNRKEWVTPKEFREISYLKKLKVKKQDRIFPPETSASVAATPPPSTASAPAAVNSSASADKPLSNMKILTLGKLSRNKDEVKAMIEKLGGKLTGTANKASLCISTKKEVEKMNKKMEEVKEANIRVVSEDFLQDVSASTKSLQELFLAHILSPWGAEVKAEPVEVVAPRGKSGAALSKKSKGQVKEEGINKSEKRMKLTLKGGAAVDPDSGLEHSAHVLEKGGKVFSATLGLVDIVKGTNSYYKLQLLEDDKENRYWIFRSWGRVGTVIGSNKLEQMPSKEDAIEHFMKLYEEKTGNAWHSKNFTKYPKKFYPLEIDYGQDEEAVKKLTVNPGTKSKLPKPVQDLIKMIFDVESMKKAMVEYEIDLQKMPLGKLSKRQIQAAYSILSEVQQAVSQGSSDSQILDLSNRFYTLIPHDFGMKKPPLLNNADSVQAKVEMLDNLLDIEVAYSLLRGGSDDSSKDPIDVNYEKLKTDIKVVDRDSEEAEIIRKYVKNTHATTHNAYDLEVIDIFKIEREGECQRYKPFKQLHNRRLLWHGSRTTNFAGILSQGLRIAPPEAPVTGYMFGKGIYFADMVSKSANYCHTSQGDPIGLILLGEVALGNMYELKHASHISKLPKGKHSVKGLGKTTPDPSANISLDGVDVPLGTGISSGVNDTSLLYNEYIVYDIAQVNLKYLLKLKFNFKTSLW

Key:
[1] = target: BAF155 (mouse heart) (mouse (endogenous in mouse hearts)) (UniProt P97496); experiment: co-IP; co-IP from cardiac tissues of mice with saline or Ang II treatment (BAF155-cWT/cKO, BAF155-WT/TG, WWP2-cWT/cKO)
[2] = target: WWP2 (mouse heart) (mouse (endogenous in mouse hearts)) (UniProt Q9DBH0); experiment: as above
[3] = target: BAF155 (UniProt Q92922); experiment: co-IP; co-IP using a series of truncation variants of PARP1
[4] = target: BAF155 (UniProt Q92922); experiment: co-IP; co-IP from cells (cells not named in the main text); treatments: Ang II, MG132, BAF155 knockdown, BAF155 overexpression
[5] = target: WWP2 (UniProt O00308); experiment: as above

| binding [3] | binding [5] | Substance | other results |
| --- | --- | --- | --- |
|  |  | PARP1 (mouse heart) (from UniProt P11103 1-1013) | binding [1]: binds; binding [2]: binds |
| binds |  | PARP1 amino acids 476-779 (PARP-A-helical domain) (from UniProt P09874 476-779) (domain or fragment) |  |
|  | binds | Poly(ADP-ribose) polymerase 1 (PARP1) (from UniProt P09874 1-1014) | binding [4]: binds |
|  | binds | BAF155 (from UniProt Q92922 1-1105) |  |
| binds |  | PARP1 amino acids 1-203 (Zinc finger domains 1/2) (from UniProt P09874 1-203) (domain or fragment) |  |
